PubChem BioAssay AID330 (DTP/NCI, 2004)
The list is a part of this screen's results and no random one: it covers a few groups of compounds. Not every dose and run of a compound is shown. T/C: endpoint of the treated group in % of that of the vehicle group. Some doses have a count of surviving animals in place of a T/C: the source holds a T/C of zero for them, seemingly a mark for toxic or unscored doses. Some survivor counts are full or nearly so, which does not show that the dose was tolerated: the source hardly ever lists a survival T/C far under the control, and the zero likely stands for such cases as well. Counts of survivors are from the toxicity check (mostly the fifth day) where no day follows; animals may have died later. Schedules are NCI's codes, taken here to give the interval after Q, in days (D) or hours (H), and the number of doses after X. Some entries hold several experiments; the values are given in rising order. Some complexes appear as separate parts, the way the source draws them; their charges need not add up. For survival time, this PubChem deposit counts one and a half times the control or more as active, and values a quarter to a half above the control carry no call in these data; other NCI protocols may use other cut-offs. Some T/C values carry the count of animals alive at the toxicity check (mostly the fifth day); where neither a count nor a note follows, no animal had died by that day. Some T/C values are marked as having no survivor count here; that says nothing about deaths at the dose.

Test system: P388 leukemia ip, CD2F1 mice, survival T/C
Assay: NCI In Vivo Anticancer Drug Screen. Data for tumor model P388 Leukemia (intraperitoneal) in CD2F1 (CDF1) mice
Conditions: T/C endpoint: median survival time, higher T/C = longer survival
[1] = dose: 50.0 mg/kg/injection, schedule: Q01DX005 (ip), vehicle: saline with Tween-80
[2] = dose: 100.0 mg/kg/injection, schedule: Q01DX005 (ip), vehicle: saline with Tween-80
[3] = dose: 50.0 mg/kg/injection, schedule: Q01DX009 (ip), vehicle: saline
[4] = dose: 100.0 mg/kg/injection, schedule: Q01DX009 (ip), vehicle: saline
[5] = dose: 200.0 mg/kg/injection, schedule: Q01DX009 (ip), vehicle: saline
[6] = dose: 50.0 mg/kg/injection, schedule: Q01DX009 (ip), vehicle: saline with Tween-80
[7] = dose: 100.0 mg/kg/injection, schedule: Q01DX009 (ip), vehicle: saline with Tween-80
[8] = dose: 200.0 mg/kg/injection, schedule: Q01DX009 (ip), vehicle: saline with Tween-80
[9] = dose: 12.5 mg/kg/injection, schedule: Q04DX003 (ip), vehicle: saline with Tween-80
[10] = dose: 25.0 mg/kg/injection, schedule: Q04DX003 (ip), vehicle: saline with Tween-80
[11] = dose: 50.0 mg/kg/injection, schedule: Q04DX003 (ip), vehicle: saline with Tween-80
[12] = dose: 100.0 mg/kg/injection, schedule: Q04DX003 (ip), vehicle: saline with Tween-80
[13] = dose: 132.0 mg/kg/injection, schedule: Q04DX003 (ip), vehicle: saline with Tween-80
[14] = dose: 200.0 mg/kg/injection, schedule: Q04DX003 (ip), vehicle: saline with Tween-80
[15] = dose: 300.0 mg/kg/injection, schedule: Q04DX003 (ip), vehicle: saline with Tween-80
[16] = dose: 400.0 mg/kg/injection, schedule: Q04DX003 (ip), vehicle: saline with Tween-80
[17] = dose: 100.0 mg/kg/injection, schedule: Q04DX003 (ip), vehicle: saline
[18] = dose: 200.0 mg/kg/injection, schedule: Q04DX003 (ip), vehicle: saline
[19] = dose: 400.0 mg/kg/injection, schedule: Q04DX003 (ip), vehicle: saline

CN1C(=O)C(C)(Br)CSC1=NCc1ccccc1 (centres undefined)
T/C [1]: 100 % of control
T/C [2]: 93 % of control
T/C (dose: 200.0 mg/kg/injection, schedule: Q01DX005 (ip), vehicle: saline with Tween-80): 103 % of control

CCC(Cl)CSC(=O)SC(Cl)C(Cl)Cl (centres undefined)
T/C [3]: 93 % of control
T/C [4]: 93 % of control
T/C [5]: 90 % of control [5 of 6 alive]

[N-]=[N+]=NCc1cn[nH]n1
T/C (dose: 60.0 mg/kg/injection, schedule: Q01DX005 (ip), vehicle: saline): 100 % of control
T/C (dose: 120.0 mg/kg/injection, schedule: Q01DX005 (ip), vehicle: saline): 100 % of control
T/C (dose: 240.0 mg/kg/injection, schedule: Q01DX005 (ip), vehicle: saline): 103 % of control

Cc1ccc2c(c1)C(=O)C(Cl)(C(Cl)c1ccccc1)S2 (centres undefined)
T/C [6]: 103 % of control
T/C [7]: 96 % of control
T/C [8]: 96 % of control

O=Cc1ccc(N(CCI)CCI)cc1
T/C [9]: 120 % of control
T/C (dose: 18.75 mg/kg/injection, schedule: Q01DX009 (ip), vehicle: saline with Tween-80): 172 % of control
T/C [10]: 120 % of control
T/C (dose: 37.5 mg/kg/injection, schedule: Q01DX009 (ip), vehicle: saline with Tween-80): 236 % of control
T/C [11]: 133 % of control
T/C (dose: 75.0 mg/kg/injection, schedule: Q01DX009 (ip), vehicle: saline with Tween-80): 95 % of control
T/C [12]: 159 % of control
T/C [13]: 129 % of control
T/C [14]: 129 and 163 % of control
T/C [15]: 133 % of control [5 of 6 alive]
T/C [16]: 104 % of control

O=[N+]([O-])C/C(=N\Nc1ccc([N+](=O)[O-])cc1[N+](=O)[O-])c1ccccc1
T/C (dose: 50.0 mg/kg/injection, schedule: Q01DX001 (ip), vehicle: saline with Tween-80): 105 % of control
T/C (dose: 100.0 mg/kg/injection, schedule: Q01DX001 (ip), vehicle: saline with Tween-80): 100 % of control
T/C (dose: 200.0 mg/kg/injection, schedule: Q01DX001 (ip), vehicle: saline with Tween-80): 100 % of control

CCSC(=O)SCCCl
T/C [3]: 97 % of control
T/C [4]: 94 % of control
T/C [5]: 88 % of control

F[P-](F)(F)(F)(F)F.c1ccc([P+]2(c3ccccc3)CCc3ccccc3C2)cc1
T/C (dose: 1.56 mg/kg/injection, schedule: Q04DX003 (ip), vehicle: saline): 96 % of control
T/C (dose: 3.13 mg/kg/injection, schedule: Q04DX003 (ip), vehicle: saline): 97 % of control
survivor count (dose: 6.25 mg/kg/injection, schedule: Q04DX003 (ip), vehicle: saline): 0 of 6

O=C(C(=O)c1c([N+](=O)[O-])cc([N+](=O)[O-])cc1[N+](=O)[O-])c1c([N+](=O)[O-])cc([N+](=O)[O-])cc1[N+](=O)[O-]
T/C [17]: 94 % of control
T/C [18]: 93 % of control
T/C [19]: 89 % of control

CCN(CC)C(=O)Oc1ccc(/C=N/NC(N)=S)nc1
T/C (dose: 25.0 mg/kg/injection, schedule: Q01DX009 (ip), vehicle: saline with Tween-80): 108 % of control [5 of 6 alive]
T/C [6]: 109 and 111 % of control
T/C [7]: 117 and 130 % of control
survivor count [8]: 1 of 6 and 3 of 6

CC(C)OP(C)(=O)OC(C)C.CC(C)OP(C)(=O)OC(C)C.CC(C)OP(C)(=O)OC(C)C.CC(C)OP(C)(=O)OC(C)C.[Mn+2].[O-][Cl+3]([O-])([O-])O
T/C [3]: 111 % of control [survivor count not shown]
T/C [4]: 120 % of control [survivor count not shown]
T/C [5]: 116 % of control [survivor count not shown]

CN([PH+](F)F)[PH+](F)F.CN([PH+](F)F)[PH+](F)F.CN([PH+](F)F)[PH+](F)F.[Mo]
T/C (dose: 100.0 mg/kg/injection, schedule: Q01DX001 (ip), vehicle: Klucel (hydroxypropylcellulose) (HPC)): 106 % of control
T/C (dose: 200.0 mg/kg/injection, schedule: Q01DX001 (ip), vehicle: Klucel (hydroxypropylcellulose) (HPC)): 112 % of control
survivor count (dose: 400.0 mg/kg/injection, schedule: Q01DX001 (ip), vehicle: Klucel (hydroxypropylcellulose) (HPC)): 0 of 6

Nc1cc([As](=O)(O)O)ccc1O
T/C (dose: 1.56 mg/kg/injection, schedule: Q01DX009 (ip), vehicle: saline): 90 % of control
T/C (dose: 3.12 mg/kg/injection, schedule: Q01DX009 (ip), vehicle: saline): 96 % of control
T/C (dose: 6.25 mg/kg/injection, schedule: Q01DX009 (ip), vehicle: saline): 94 % of control
T/C (dose: 12.5 mg/kg/injection, schedule: Q01DX009 (ip), vehicle: saline): 93 % of control
T/C (dose: 25.0 mg/kg/injection, schedule: Q01DX009 (ip), vehicle: saline): 94 % of control
T/C [3]: 94 % of control
T/C [4]: 97, 102, 104 % of control
T/C [5]: 102 and 108 % of control
T/C (dose: 400.0 mg/kg/injection, schedule: Q01DX009 (ip), vehicle: saline): 108 and 111 % of control
T/C (dose: 600.0 mg/kg/injection, schedule: Q01DX009 (ip), vehicle: saline): 100 and 101 % of control [5 of 6 alive]

O=C(O)CCc1cccc(N(CCCl)CCCl)c1
T/C [9]: 91 % of control
T/C [10]: 137 % of control
T/C [3]: 118 % of control
T/C [11]: 145 % of control
T/C (dose: 66.0 mg/kg/injection, schedule: Q04DX003 (ip), vehicle: saline with Tween-80): 181 % of control [5 of 6 alive]
T/C [4]: 109 % of control
T/C [12]: 104 [4 of 6 alive] and 131 % of control
T/C [13]: 200 % of control
survivor count (dose: 150.0 mg/kg/injection, schedule: Q04DX003 (ip), vehicle: saline with Tween-80): 1 of 6
T/C [5]: 140 % of control
T/C [14]: 172 % of control
survivor count [14]: 5 of 6
survivor count [15]: 3 of 6
survivor count [16]: 3 of 6

CC(C)OP(C)(=O)O.[V]
T/C (dose: 100.0 mg/kg/injection, schedule: Q01DX009 (ip), vehicle: Klucel (hydroxypropylcellulose) (HPC)): 87 % of control [survivor count not shown]

O=[N+]([O-])C(F)(CNC(=S)NCC(F)([N+](=O)[O-])[N+](=O)[O-])[N+](=O)[O-]
T/C [17]: 98 % of control
T/C [18]: 98 % of control
T/C [19]: 104 % of control

COP(C)(=O)OC.COP(C)(=O)OC.COP(C)(=O)OC.COP(C)(=O)OC.COP(C)(=O)OC.COP(C)(=O)OC.[Cr+3].[O-][Cl+3]([O-])([O-])O
T/C [6]: 106 % of control [survivor count not shown]
T/C [7]: 108 % of control [survivor count not shown]
T/C [8]: 115 % of control [survivor count not shown]

Cc1ccc(N2CC=C(c3ccc(Cl)cc3Cl)OP2(=O)Cl)cc1 (centres undefined)
T/C (dose: 25.0 mg/kg/injection, schedule: Q01DX005 (ip), vehicle: saline with Tween-80): 100 % of control
T/C [1]: 102 % of control
T/C [2]: 100 % of control
